# From the supplement of paper PMC4635364
# Counter-ions that a name gives are not always drawn. The list shows a part of the results. Single values are uncertain here, since repeats match poorly.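 ReNCell VM, a human fetal ventral-midbrain neural progenitor line, was differentiated without mitogens. Blinded raters scored images stained for doublecortin (early neurons) or tyrosine hydroxylase (dopaminergic neurons) against untreated wells (0 = no change). Scores were averaged across repeats and both raters, and compounds averaging 2 or more were selected as hits for retesting.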
# Tests used:
# [1] = test system: ReNCell VM; assay: neuronal differentiation score (DCX+ cell fraction vs untreated, manual image score) (score (-3 to 3)); higher = more neuronal differentiation; details: 2 uM, 2 weeks
# [2] = test system: ReNCell VM; assay: dopaminergic neuron differentiation score (TH+ cell fraction vs untreated, manual image score) (score (0 to 3)); higher = more TH+ dopaminergic neuron differentiation; details: 2 uM, 4 weeks, BDNF 10 ng/ml + GDNF 10 ng/ml
structure (smiles),measurement,setting,value
O=C1c2ccccc2C(=O)C1c1ccc(Cl)cc1,neuronal differentiation score,[1]; library: Spectrum,inactive: 0
same,dopaminergic neuron differentiation score,[2]; library: Spectrum,inactive: 0
CCN(CC)c1ccc(/C=N/NC(=O)c2ccc(O)cc2)cc1,neuronal differentiation score,[1]; library: Tocriscreen,inactive: 0
same,dopaminergic neuron differentiation score,[2]; library: Tocriscreen,inactive: 0
CCN(CC)C(=O)N1CCN(C)CC1,neuronal differentiation score,[1]; library: Spectrum,inactive: 1
same,dopaminergic neuron differentiation score,[2]; library: Spectrum,inactive: 0
CC(=O)O[C@@H]1CC2C(C)(C)C(=O)C3OC3[C@]2(C)C2CC[C@@]3(C)[C@H](c4ccoc4)OC(=O)C4OC43[C@@]21C (some centres not stated),neuronal differentiation score,[1]; library: Spectrum,inactive: 0
same,dopaminergic neuron differentiation score,[2]; library: Spectrum,inactive: 0
COc1ncnc(NS(=O)(=O)c2ccc(N)cc2)c1OC [Sulfadoxine],neuronal differentiation score,[1]; library: Prestwick,inactive: 0
same,dopaminergic neuron differentiation score,[2]; library: Prestwick,inactive: 0
CCCNC(C)C(=O)Nc1c(C)csc1C(=O)OC (configuration not stated) [Articaine hydrochloride],neuronal differentiation score,[1]; library: Prestwick,inactive: 0
same,dopaminergic neuron differentiation score,[2]; library: Prestwick,inactive: 0
CC(C)(C)[C@]1(O)CCN2C[C@H]3c4ccccc4CCc4cccc(c43)[C@@H]2C1 [(+)-Butaclamol hydrochloride],neuronal differentiation score,[1]; library: LOPAC,inactive: 1
same,dopaminergic neuron differentiation score,[2]; library: LOPAC,inactive: 1
CN1CCOC(c2ccccc2)c2ccccc2C1 (configuration not stated),neuronal differentiation score,[1]; library: Spectrum,inactive: 0
same,dopaminergic neuron differentiation score,[2]; library: Spectrum,inactive: 0
CC(=O)NC[C@H]1CN(c2ccc(N3CCOCC3)c(F)c2)C(=O)O1 [Linezolid],neuronal differentiation score,[1]; library: Prestwick,inactive: 0
same,dopaminergic neuron differentiation score,[2]; library: Prestwick,inactive: 0
C/C=C(/C(=C/C)c1ccc(O)cc1)c1ccc(O)cc1 [Dienestrol],neuronal differentiation score,[1]; library: Prestwick,inactive: 0
same,dopaminergic neuron differentiation score,[2]; library: Prestwick,inactive: 0
CC(=O)[C@H]1CC[C@H]2[C@@H]3CC=C4C[C@@H](OS(=O)(=O)O)CC[C@]4(C)[C@H]3CC[C@]12C [Pregnenolone sulfate sodium],neuronal differentiation score,[1]; library: LOPAC,inactive: 0
same,dopaminergic neuron differentiation score,[2]; library: LOPAC,inactive: 1
CS(=O)(=O)c1ccc(-c2cc(Br)sc2-c2ccc(F)cc2)cc1,neuronal differentiation score,[1]; library: Tocriscreen,inactive: 0
same,dopaminergic neuron differentiation score,[2]; library: Tocriscreen,inactive: 0
Oc1ccc(-c2nc3cc(O)cc(Br)c3o2)cc1,neuronal differentiation score,[1]; library: Tocriscreen,inactive: 0
same,dopaminergic neuron differentiation score,[2]; library: Tocriscreen,inactive: 0
CCCOc1ccc(C(=O)OCCN(CC)CC)cc1N [Proparacaine hydrochloride],neuronal differentiation score,[1]; library: Prestwick,inactive: 0
same,dopaminergic neuron differentiation score,[2]; library: Prestwick,active: 3
c1ccc(C2CN3CCSC3=N2)cc1 (configuration not stated),neuronal differentiation score,[1]; library: Spectrum,inactive: 0
same,dopaminergic neuron differentiation score,[2]; library: Spectrum,inactive: 0
CC(C)(Oc1ccc(Cl)cc1)C(=O)O,neuronal differentiation score,[1]; library: Spectrum,inactive: 0
same,dopaminergic neuron differentiation score,[2]; library: Spectrum,inactive: 0
CC1(C)O[C@@H]2C[C@H]3[C@@H]4C[C@H](F)C5=CC(=O)CC[C@]5(C)[C@H]4[C@@H](O)C[C@]3(C)[C@]2(C(=O)CO)O1,neuronal differentiation score,[1]; library: Spectrum,inactive: 0
same,dopaminergic neuron differentiation score,[2]; library: Spectrum,inactive: 1
O=c1[nH]cnc2nc[nH]c12,neuronal differentiation score,[1]; library: Spectrum,inactive: 0
same,dopaminergic neuron differentiation score,[2]; library: Spectrum,inactive: 0
Cc1ccc(N(CC2=NCCN2)c2cccc(O)c2)cc1,neuronal differentiation score,[1]; library: Spectrum,inactive: 0
same,dopaminergic neuron differentiation score,[2]; library: Spectrum,inactive: 0
O=c1c(-c2ccc(O)cc2)coc2cc(O[C@@H]3O[C@H](CO)[C@@H](O)[C@H](O)[C@H]3O)cc(O)c12 [Genistin],neuronal differentiation score,[1]; library: Phytochemical,inactive: 0
same,dopaminergic neuron differentiation score,[2]; library: Phytochemical,inactive: 0
NC1(C(=O)O)CC1 [1-Aminocyclopropanecarboxylic acid hydrochloride],neuronal differentiation score,[1]; library: LOPAC,inactive: 0
same,dopaminergic neuron differentiation score,[2]; library: LOPAC,inactive: 0
CN1C(=O)CC(c2ccccc2)C1=O (configuration not stated),neuronal differentiation score,[1]; library: Spectrum,inactive: 1
same,dopaminergic neuron differentiation score,[2]; library: Spectrum,inactive: 0
CCCCCCCCCCCCCCCC(=O)OC[C@@H](NC(=O)C(Cl)Cl)[C@H](O)c1ccc([N+](=O)[O-])cc1,neuronal differentiation score,[1]; library: Spectrum,inactive: 0
same,dopaminergic neuron differentiation score,[2]; library: Spectrum,inactive: 0
O=C(O)CCCCCCCC(=O)O,neuronal differentiation score,[1]; library: Spectrum,inactive: -1
same,dopaminergic neuron differentiation score,[2]; library: Spectrum,inactive: 0
CC1(C)S[C@@H]2[C@H](NC(=O)Cc3ccccc3)C(=O)N2[C@H]1C(=O)O [Benzathine benzylpenicillin],neuronal differentiation score,[1]; library: Prestwick,inactive: 0
same,dopaminergic neuron differentiation score,[2]; library: Prestwick,inactive: 0
COc1ccc(S(=O)(=O)N2c3ccc(Cl)cc3[C@](O)(c3ccccc3Cl)[C@@H]2C(=O)N2CCC[C@H]2C(N)=O)cc1OC,neuronal differentiation score,[1]; library: Tocriscreen,inactive: 0
same,dopaminergic neuron differentiation score,[2]; library: Tocriscreen,inactive: 0
CC(=O)Nc1cc2ccccc2oc1=O,neuronal differentiation score,[1]; library: Spectrum,inactive: 0
same,dopaminergic neuron differentiation score,[2]; library: Spectrum,inactive: 0
CC(CN(C)C)CN1c2ccccc2CCc2ccccc21 (configuration not stated) [Trimipramine maleate],neuronal differentiation score,[1]; library: LOPAC,inactive: 0
same,dopaminergic neuron differentiation score,[2]; library: LOPAC,inactive: 0
Cc1cc(O)c(C)c(O)c1C(=O)O,neuronal differentiation score,[1]; library: Spectrum,inactive: 0
same,dopaminergic neuron differentiation score,[2]; library: Spectrum,inactive: 1
COc1cc(NS(C)(=O)=O)ccc1Nc1c2ccccc2nc2ccccc12,neuronal differentiation score,[1]; library: Spectrum,inactive: 0
same,dopaminergic neuron differentiation score,[2]; library: Spectrum,inactive: 0
CCOC(=O)O[C@]1(C(=O)COC(=O)CC)CC[C@H]2[C@@H]3CCC4=CC(=O)C=C[C@]4(C)[C@H]3[C@@H](O)C[C@@]21C,neuronal differentiation score,[1]; library: Spectrum,inactive: 0
same,dopaminergic neuron differentiation score,[2]; library: Spectrum,inactive: 0
CC(=O)OCC(=O)[C@@]1(O)[C@@H](C)C[C@H]2[C@@H]3CCC4=CC(=O)C=C[C@]4(C)[C@@]3(F)[C@@H](O)C[C@@]21C,neuronal differentiation score,[1]; library: Spectrum,inactive: 0
same,dopaminergic neuron differentiation score,[2]; library: Spectrum,inactive: 0
Nc1nc(Cl)nc2c1ncn2[C@@H]1O[C@H](CO)[C@@H](O)[C@@H]1F,neuronal differentiation score,[1]; library: Spectrum,inactive: 0
same,dopaminergic neuron differentiation score,[2]; library: Spectrum,inactive: 0
NCC(=O)CCC(=O)O,neuronal differentiation score,[1]; library: Spectrum,inactive: -1
same,dopaminergic neuron differentiation score,[2]; library: Spectrum,inactive: 0
COc1ccc([C@@H]2[C@@H](O)[C@H](O)[C@@H](C)N2C)cc1OC [codonopsine],neuronal differentiation score,[1]; library: Natural,inactive: 0
same,dopaminergic neuron differentiation score,[2]; library: Natural,inactive: 0
C=CCc1ccc(O)c(-c2ccc(O)c(CC=C)c2)c1 [honokiol],neuronal differentiation score,[1]; library: Natural,inactive: 0
same,dopaminergic neuron differentiation score,[2]; library: Natural,inactive: 0
CCNC(=O)[C@H]1O[C@@H](n2cnc3c(N)nc(NCCc4ccc(CCC(=O)O)cc4)nc32)[C@H](O)[C@@H]1O,neuronal differentiation score,[1]; library: LOPAC,inactive: 0
same,dopaminergic neuron differentiation score,[2]; library: LOPAC,inactive: 0
O=C(O)C(=O)O.[NH-][C@@H]1CCCC[C@H]1[NH-].[Pt+2] [Oxaliplatin],neuronal differentiation score,[1]; library: Tocriscreen,inactive: 0
same,dopaminergic neuron differentiation score,[2]; library: Tocriscreen,inactive: 0
Nc1cc[nH]c(=O)n1 [Cytosine],neuronal differentiation score,[1]; library: Phytochemical,inactive: 0
same,dopaminergic neuron differentiation score,[2]; library: Phytochemical,inactive: 0
O=C(NCCN1CCOCC1)c1ccc(Cl)cc1 [Moclobemide],neuronal differentiation score,[1]; library: Prestwick,inactive: 0
same,dopaminergic neuron differentiation score,[2]; library: Prestwick,inactive: 0
O=C(O)c1ccccc1-c1c2cc(I)c(=O)c(I)c-2oc2c(I)c(O)c(I)cc12,neuronal differentiation score,[1]; library: Spectrum,inactive: 0
same,dopaminergic neuron differentiation score,[2]; library: Spectrum,inactive: 0
CC(COc1ccccc1)NC(C)C(O)c1ccc(O)cc1 (configuration not stated) [Isoxsuprine hydrochloride],neuronal differentiation score,[1]; library: Prestwick,inactive: 0
same,dopaminergic neuron differentiation score,[2]; library: Prestwick,inactive: 0
NC1(C(=O)O)CCCCC1 [1-Amino-1-cyclohexanecarboxylic acid hydrochloride],neuronal differentiation score,[1]; library: LOPAC,inactive: 0
same,dopaminergic neuron differentiation score,[2]; library: LOPAC,inactive: 0
CC(C)(O)c1ccccc1CC[C@@H](SCC1(CC(=O)O)CC1)c1cccc(/C=C/c2ccc3ccc(Cl)cc3n2)c1,neuronal differentiation score,[1]; library: Spectrum,inactive: 0
same,dopaminergic neuron differentiation score,[2]; library: Spectrum,inactive: 0
CC1(C)C[C@@H]2C(=O)CC[C@H]3O[C@]3(C)CC[C@H]21,neuronal differentiation score,[1]; library: Spectrum,inactive: 0
same,dopaminergic neuron differentiation score,[2]; library: Spectrum,inactive: 0
NC(=O)N1c2ccccc2CC(O)c2ccccc21 (configuration not stated) [Licarbazepine],neuronal differentiation score,[1]; library: Tocriscreen,inactive: 0
same,dopaminergic neuron differentiation score,[2]; library: Tocriscreen,inactive: 0
C=COCC(F)(F)F,neuronal differentiation score,[1]; library: Spectrum,inactive: 0
same,dopaminergic neuron differentiation score,[2]; library: Spectrum,inactive: 0
C[C@H](N[C@@H](CCc1ccccc1)C(=O)O)C(=O)N1Cc2ccccc2C[C@H]1C(=O)O,neuronal differentiation score,[1]; library: Spectrum,inactive: 0
same,dopaminergic neuron differentiation score,[2]; library: Spectrum,inactive: 0
O=C(O)[C@]1(O)C[C@@H](O)[C@@H](O)[C@H](O)C1 [quinic acid],neuronal differentiation score,[1]; library: Natural,inactive: 0
same,dopaminergic neuron differentiation score,[2]; library: Natural,inactive: 0
COc1ccc2cc([C@H](C)CO)ccc2c1,neuronal differentiation score,[1]; library: Spectrum,inactive: 0
same,dopaminergic neuron differentiation score,[2]; library: Spectrum,inactive: 0
CC(C)=CCn1cnc2c1c(=O)n(C)c(=O)n2C [7-prenyl-theophylline],neuronal differentiation score,[1]; library: Natural,inactive: 0
same,dopaminergic neuron differentiation score,[2]; library: Natural,inactive: 0
COc1ccc2c(=O)c(OC)c(-c3ccccc3)oc2c1,neuronal differentiation score,[1]; library: Spectrum,inactive: 0
same,dopaminergic neuron differentiation score,[2]; library: Spectrum,inactive: 0
O=c1[nH]c(=O)n([C@H]2C[C@H](O)[C@@H](CO)O2)cc1C(F)(F)F,neuronal differentiation score,[1]; library: Spectrum,inactive: 0
same,dopaminergic neuron differentiation score,[2]; library: Spectrum,inactive: 0
CCN(CC)CCOC(=O)C(c1ccccc1)c1ccccc1 [Adiphenine hydrochloride],neuronal differentiation score,[1]; library: Prestwick,inactive: 0
same,dopaminergic neuron differentiation score,[2]; library: Prestwick,inactive: 0
Cc1onc(-c2ccccc2Cl)c1C(=O)N[C@@H]1C(=O)N2[C@@H]1SC(C)(C)[C@@H]2C(=O)O [Cloxacillin sodium salt],neuronal differentiation score,[1]; library: Prestwick,inactive: 0
same,dopaminergic neuron differentiation score,[2]; library: Prestwick,inactive: 0
CN1CCCC(n2nc(Cc3ccc(Cl)cc3)c3ccccc3c2=O)CC1 (configuration not stated) [Azelastine HCl],neuronal differentiation score,[1]; library: Prestwick,inactive: 0
same,dopaminergic neuron differentiation score,[2]; library: Prestwick,inactive: 0

# Four records drawn at random from those above, as already listed:
structure (smiles),measurement,setting,value
Cc1ccc(N(CC2=NCCN2)c2cccc(O)c2)cc1,dopaminergic neuron differentiation score,[2]; library: Spectrum,inactive: 0
O=C(NCCN1CCOCC1)c1ccc(Cl)cc1 [Moclobemide],dopaminergic neuron differentiation score,[2]; library: Prestwick,inactive: 0
CCN(CC)C(=O)N1CCN(C)CC1,dopaminergic neuron differentiation score,[2]; library: Spectrum,inactive: 0
Cc1cc(O)c(C)c(O)c1C(=O)O,dopaminergic neuron differentiation score,[2]; library: Spectrum,inactive: 1
